2 substances from article PMC6203705 can be followed below.

Amino acid sequences for entries named in this document (tags omitted). A change or cut given only in a name is not applied to a line headed by its entry.
UniProt Q9UN81: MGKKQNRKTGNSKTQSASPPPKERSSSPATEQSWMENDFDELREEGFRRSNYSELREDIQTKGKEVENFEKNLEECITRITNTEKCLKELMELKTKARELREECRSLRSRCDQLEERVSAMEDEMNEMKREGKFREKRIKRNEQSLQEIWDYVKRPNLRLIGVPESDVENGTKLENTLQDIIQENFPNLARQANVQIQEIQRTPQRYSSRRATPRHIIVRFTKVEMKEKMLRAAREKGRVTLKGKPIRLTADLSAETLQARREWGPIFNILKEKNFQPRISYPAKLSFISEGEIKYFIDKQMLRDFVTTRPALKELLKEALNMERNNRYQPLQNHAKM
UniProt Q9NS91: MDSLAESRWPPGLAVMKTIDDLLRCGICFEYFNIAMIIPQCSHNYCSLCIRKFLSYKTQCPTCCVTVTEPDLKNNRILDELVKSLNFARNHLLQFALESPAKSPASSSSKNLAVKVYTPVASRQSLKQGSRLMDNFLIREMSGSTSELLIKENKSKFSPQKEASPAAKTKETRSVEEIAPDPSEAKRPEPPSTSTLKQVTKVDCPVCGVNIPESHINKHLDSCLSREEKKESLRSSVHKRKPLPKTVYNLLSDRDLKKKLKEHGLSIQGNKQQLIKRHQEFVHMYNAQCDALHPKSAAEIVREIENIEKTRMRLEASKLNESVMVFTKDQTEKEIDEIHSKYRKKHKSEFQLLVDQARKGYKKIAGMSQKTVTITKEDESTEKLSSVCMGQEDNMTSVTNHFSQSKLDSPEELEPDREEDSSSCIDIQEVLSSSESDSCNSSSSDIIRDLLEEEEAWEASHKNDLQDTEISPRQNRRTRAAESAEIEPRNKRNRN

The target in the test is HA-tagged L1 ORF1p (human) (UniProt Q9UN81). Put plainly: co-IP; lysates of 293T cells co-expressing Myc-tagged Rad18 (WT, ∆6BD or ∆C2) and HA-tagged L1 ORF1p; precipitated with anti-HA (3F10) and protein-G-Sepharose, 4 °C; blot with anti-Myc-tag; lysis buffer 10 mM Tris-HCl pH 8.0, 150 mM NaCl, 1 mM EDTA, 0.1% NP-40.

Results are given in words; binding and its absence hold for the method and conditions named. Binding seen in cells or lysates may run through a third protein. A result given as binding can be weak or reduced; the word gives no strength.

Take “Myc-tagged Rad18 ∆6BD (from UniProt Q9NS91)”: the binding result is recorded as “no binding”.

As to “Myc-tagged Rad18 ∆C2 (from UniProt Q9NS91)”, the binding entry is reported as “binds”.
